Read-outs that look alike come from different tables or passages of the source. These are yes or no findings as the source states them, for the method shown. Binding seen in cells or lysates may run through a third protein. Some binding calls cover weakened binding; strength is not graded here. Tags and fused reporters may be left off the sequences shown.
What was measured:
DIAP1::GFP (Drosophila) [1] = molecular target: T1, DIAP1::GFP (Drosophila) (UniProt Q24306); assay: co-IP
T1 sequence: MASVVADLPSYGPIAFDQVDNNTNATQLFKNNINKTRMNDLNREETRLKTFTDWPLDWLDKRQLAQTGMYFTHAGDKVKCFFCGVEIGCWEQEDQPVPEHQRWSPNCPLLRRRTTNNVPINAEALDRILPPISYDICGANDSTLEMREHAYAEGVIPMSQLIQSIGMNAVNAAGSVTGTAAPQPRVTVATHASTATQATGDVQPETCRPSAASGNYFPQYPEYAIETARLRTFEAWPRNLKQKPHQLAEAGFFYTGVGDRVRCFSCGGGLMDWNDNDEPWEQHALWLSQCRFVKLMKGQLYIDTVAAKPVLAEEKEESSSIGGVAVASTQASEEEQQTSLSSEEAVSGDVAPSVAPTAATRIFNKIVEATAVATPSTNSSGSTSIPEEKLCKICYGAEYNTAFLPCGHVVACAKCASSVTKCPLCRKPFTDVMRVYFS

Amino acid sequences for entries named in this document (tags omitted).
UniProt Q9W3M3: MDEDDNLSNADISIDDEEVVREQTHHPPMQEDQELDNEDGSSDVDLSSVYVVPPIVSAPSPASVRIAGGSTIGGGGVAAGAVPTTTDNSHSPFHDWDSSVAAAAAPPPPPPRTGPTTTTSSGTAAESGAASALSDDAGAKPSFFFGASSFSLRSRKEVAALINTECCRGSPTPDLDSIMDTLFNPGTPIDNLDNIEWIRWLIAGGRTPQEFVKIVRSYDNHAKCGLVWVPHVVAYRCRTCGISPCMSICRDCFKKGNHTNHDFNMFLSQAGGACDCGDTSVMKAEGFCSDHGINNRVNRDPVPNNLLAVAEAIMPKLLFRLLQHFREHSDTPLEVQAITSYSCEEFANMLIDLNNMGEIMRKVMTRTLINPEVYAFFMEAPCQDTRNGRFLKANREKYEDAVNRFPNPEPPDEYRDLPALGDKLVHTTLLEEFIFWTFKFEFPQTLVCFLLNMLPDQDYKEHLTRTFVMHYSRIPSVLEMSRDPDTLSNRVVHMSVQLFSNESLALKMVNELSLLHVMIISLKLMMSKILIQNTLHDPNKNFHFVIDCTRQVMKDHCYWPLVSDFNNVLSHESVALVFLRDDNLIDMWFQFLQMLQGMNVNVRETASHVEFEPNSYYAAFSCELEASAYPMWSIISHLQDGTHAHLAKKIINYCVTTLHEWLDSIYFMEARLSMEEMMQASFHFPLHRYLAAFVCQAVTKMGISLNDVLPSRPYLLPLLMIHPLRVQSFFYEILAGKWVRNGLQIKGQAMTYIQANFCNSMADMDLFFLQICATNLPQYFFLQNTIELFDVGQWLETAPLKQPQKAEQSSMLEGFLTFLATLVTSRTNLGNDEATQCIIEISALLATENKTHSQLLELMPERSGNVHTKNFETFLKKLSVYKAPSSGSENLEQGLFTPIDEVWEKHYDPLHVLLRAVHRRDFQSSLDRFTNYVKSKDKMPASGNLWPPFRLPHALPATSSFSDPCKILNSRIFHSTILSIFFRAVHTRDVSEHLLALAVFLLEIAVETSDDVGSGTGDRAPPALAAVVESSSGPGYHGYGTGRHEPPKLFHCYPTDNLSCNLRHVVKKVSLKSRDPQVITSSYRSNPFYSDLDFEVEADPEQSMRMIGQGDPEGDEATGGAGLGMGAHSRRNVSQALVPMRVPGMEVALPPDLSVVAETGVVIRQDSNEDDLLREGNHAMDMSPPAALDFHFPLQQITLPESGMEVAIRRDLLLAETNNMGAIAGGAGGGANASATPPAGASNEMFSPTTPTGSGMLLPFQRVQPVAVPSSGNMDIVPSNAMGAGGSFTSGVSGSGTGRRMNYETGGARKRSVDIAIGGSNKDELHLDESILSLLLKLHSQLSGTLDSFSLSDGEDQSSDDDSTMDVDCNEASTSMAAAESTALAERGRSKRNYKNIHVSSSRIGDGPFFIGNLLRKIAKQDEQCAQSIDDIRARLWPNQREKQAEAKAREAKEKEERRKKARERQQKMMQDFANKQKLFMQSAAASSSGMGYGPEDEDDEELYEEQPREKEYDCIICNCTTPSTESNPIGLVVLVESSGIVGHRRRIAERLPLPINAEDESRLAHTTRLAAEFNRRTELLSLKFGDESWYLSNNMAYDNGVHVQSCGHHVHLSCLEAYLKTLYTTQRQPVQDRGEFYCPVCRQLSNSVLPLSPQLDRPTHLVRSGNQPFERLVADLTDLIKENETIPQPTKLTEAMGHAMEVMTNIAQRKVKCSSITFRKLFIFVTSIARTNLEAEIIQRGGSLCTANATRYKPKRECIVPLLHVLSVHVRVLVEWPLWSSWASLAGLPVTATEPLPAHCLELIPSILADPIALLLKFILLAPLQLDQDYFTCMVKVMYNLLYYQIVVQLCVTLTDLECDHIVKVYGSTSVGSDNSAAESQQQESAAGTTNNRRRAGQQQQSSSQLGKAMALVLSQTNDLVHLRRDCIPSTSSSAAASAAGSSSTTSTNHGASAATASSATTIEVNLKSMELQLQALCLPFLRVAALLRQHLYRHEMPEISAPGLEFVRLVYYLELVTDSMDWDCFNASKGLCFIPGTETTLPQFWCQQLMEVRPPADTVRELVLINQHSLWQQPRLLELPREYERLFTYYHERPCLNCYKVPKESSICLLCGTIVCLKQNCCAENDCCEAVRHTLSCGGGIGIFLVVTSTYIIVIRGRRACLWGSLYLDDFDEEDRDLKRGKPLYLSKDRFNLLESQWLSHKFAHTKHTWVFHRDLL

DIAP1::GFP (Drosophila) [2] = molecular target: T1, DIAP1::GFP (Drosophila); assay: co-IP; remark: listed apart in the source

binding (DIAP1::GFP (Drosophila) [1]): binds | binding (DIAP1::GFP (Drosophila) [2]): binds weakly
Substance: Ubr3::V5 (from UniProt Q9W3M3 1-2219) (enzyme)

Reference: publication doi:10.1101/2023.03.07.531572
